Assay results: patent publication US12195755B2, “Placental lipid bilayer for cell-free molecular interaction studies” (priority 2019, dated 2025)

Assay: QCM-D interaction with supported placental lipid bilayers
Design: species or system human
Conditions: for interaction with supported trophoblast bilayers compared to amBisome®: 0.1 mg/mL amphotericin B, QCM-D frequency and dissipation changes

Compound	interaction with supported trophoblast bilayers compared to amBisome®	interaction with supported trophoblast bilayers compared to amBisome® (listed as Amphotericin B)	adsorption to bilayers (DEHP 200 μM in 1% DMSO, HTR-8, TCL-1 and primary bilayers)
C[C@@H]1[C@H](O)[C@@H](C)/C=C/C=C/C=C/C=C/C=C/C=C/C=C/[C@H](O[C@@H]2O[C@H](C)[C@@H](O)[C@H](N)[C@@H]2O)C[C@@H]2O[C@](O)(C[C@@H](O)C[C@@H](O)[C@H](O)CC[C@@H](O)C[C@@H](O)CC(=O)O[C@H]1C)C[C@H](O)[C@H]2C(=O)O [amphotericin B]	interacts less	interacted more	
CCCCC(CC)COC(=O)c1ccccc1C(=O)OCC(CC)CCCC (stereo not drawn) [DEHP, di(2-ethylhexyl) phthalate]			adsorbed to all three of the bilayers
